Experimental data taken from the supplement of paper PMC10849652.
Some of the results follow.

The chains behind the UniProt entries cited, without tags or fusion partners. Where a name states a change or a piece, a line headed by the entry shows the natural chain unless it says otherwise.
UniProt Q9Y397: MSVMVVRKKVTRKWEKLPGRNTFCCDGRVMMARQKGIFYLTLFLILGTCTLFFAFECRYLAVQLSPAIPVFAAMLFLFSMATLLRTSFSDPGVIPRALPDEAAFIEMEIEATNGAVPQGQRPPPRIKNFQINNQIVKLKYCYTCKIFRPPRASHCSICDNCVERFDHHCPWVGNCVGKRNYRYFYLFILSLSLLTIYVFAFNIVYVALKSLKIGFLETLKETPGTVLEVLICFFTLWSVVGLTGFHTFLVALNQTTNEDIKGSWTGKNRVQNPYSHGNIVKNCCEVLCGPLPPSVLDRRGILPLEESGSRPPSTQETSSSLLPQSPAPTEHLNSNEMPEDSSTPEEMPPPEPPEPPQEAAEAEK
UniProt Q8IUH5: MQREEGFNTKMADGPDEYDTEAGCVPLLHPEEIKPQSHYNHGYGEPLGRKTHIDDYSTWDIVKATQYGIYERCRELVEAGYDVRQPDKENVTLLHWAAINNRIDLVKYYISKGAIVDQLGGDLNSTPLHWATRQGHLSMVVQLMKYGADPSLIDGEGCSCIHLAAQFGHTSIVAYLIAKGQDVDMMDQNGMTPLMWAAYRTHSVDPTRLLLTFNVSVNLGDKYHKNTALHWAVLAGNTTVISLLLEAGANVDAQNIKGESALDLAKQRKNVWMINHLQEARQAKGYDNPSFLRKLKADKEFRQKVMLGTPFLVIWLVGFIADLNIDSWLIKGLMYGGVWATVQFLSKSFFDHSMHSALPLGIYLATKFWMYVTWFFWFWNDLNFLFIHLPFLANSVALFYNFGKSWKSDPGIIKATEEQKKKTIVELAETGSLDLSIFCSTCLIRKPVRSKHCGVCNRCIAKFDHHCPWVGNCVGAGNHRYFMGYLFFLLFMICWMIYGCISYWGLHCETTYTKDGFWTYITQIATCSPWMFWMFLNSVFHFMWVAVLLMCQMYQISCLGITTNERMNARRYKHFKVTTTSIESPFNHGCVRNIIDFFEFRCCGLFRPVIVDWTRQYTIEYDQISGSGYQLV
UniProt P86452: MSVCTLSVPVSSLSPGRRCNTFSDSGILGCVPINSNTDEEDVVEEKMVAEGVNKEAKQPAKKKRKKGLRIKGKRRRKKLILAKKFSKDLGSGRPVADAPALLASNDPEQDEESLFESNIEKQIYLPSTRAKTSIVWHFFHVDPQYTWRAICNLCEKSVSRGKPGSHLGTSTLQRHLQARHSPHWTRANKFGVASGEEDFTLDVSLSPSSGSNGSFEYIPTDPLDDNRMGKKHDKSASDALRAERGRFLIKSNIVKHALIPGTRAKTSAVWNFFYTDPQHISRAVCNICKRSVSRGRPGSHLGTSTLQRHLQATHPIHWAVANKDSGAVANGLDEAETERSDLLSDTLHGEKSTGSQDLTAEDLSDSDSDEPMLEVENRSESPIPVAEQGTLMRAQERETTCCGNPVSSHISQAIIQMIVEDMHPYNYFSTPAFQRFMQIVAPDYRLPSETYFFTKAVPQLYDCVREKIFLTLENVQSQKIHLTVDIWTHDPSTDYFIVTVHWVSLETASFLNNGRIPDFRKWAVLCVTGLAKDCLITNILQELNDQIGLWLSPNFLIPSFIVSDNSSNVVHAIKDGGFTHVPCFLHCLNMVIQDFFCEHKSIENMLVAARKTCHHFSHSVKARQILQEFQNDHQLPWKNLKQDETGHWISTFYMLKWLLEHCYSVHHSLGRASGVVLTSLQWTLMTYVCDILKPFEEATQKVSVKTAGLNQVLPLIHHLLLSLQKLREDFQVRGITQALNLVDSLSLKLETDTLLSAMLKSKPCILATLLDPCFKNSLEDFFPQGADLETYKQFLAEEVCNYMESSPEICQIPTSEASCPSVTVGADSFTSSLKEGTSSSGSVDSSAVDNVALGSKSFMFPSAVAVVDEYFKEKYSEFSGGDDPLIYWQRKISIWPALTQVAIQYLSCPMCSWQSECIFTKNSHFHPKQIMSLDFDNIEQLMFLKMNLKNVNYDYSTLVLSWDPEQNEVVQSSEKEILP
UniProt Q9HBF4: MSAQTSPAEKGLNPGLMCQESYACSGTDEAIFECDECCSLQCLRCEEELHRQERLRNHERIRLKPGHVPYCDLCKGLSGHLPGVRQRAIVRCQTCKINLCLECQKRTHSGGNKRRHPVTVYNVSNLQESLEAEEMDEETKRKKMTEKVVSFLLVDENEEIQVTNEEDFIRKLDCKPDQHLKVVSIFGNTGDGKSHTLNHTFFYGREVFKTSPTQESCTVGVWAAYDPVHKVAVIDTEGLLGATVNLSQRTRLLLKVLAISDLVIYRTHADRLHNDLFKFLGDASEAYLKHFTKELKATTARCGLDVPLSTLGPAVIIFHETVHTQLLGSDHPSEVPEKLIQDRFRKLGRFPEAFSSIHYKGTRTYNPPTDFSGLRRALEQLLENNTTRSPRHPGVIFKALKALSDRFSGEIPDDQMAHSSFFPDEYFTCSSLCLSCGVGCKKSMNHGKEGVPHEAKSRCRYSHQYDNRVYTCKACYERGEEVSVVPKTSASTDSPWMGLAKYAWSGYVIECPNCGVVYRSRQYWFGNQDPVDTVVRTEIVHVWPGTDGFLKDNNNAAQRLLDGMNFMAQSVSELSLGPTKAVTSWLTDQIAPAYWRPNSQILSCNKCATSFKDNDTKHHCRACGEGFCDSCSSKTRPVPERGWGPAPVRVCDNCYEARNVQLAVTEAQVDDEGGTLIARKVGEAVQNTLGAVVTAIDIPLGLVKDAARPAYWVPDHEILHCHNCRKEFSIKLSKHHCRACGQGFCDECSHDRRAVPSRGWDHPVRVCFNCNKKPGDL
UniProt Q9UIJ5: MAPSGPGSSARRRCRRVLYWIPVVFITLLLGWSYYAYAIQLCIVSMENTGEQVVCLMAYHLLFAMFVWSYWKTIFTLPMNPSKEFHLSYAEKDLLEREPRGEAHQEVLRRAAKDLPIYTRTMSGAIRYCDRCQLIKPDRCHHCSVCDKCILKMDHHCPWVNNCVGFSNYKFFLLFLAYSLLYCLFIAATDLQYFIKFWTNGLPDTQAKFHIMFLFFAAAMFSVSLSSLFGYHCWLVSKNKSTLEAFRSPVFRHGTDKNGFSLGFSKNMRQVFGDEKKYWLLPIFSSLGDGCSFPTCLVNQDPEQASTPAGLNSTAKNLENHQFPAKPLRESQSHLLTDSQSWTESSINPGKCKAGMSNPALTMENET
UniProt Q9BQ24: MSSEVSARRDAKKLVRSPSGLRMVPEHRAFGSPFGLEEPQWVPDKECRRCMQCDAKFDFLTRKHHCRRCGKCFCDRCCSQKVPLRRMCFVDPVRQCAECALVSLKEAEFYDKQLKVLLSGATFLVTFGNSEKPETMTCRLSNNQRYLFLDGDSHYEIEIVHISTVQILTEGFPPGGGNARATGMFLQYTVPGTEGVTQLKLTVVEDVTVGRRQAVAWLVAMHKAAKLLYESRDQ
UniProt Q9H869: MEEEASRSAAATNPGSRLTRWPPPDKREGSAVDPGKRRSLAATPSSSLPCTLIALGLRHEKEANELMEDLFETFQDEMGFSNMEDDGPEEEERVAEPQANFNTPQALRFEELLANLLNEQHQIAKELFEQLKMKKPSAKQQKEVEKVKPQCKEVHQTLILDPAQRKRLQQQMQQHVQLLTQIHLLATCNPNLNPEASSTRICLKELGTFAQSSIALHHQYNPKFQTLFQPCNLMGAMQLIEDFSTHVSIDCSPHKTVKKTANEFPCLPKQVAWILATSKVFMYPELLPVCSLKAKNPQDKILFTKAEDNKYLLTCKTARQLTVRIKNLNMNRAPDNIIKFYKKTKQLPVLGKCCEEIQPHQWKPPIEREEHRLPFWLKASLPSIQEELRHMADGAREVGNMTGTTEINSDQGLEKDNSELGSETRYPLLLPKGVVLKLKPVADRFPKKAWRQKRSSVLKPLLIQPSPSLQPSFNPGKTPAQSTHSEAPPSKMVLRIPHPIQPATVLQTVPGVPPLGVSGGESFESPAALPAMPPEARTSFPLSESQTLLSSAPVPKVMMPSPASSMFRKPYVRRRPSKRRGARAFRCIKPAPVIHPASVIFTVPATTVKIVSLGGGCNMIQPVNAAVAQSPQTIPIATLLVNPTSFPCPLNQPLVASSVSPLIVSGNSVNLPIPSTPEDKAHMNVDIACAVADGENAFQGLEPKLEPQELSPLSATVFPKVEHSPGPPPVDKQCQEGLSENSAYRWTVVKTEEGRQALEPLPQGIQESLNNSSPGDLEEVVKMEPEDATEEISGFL
UniProt Q8TBF4: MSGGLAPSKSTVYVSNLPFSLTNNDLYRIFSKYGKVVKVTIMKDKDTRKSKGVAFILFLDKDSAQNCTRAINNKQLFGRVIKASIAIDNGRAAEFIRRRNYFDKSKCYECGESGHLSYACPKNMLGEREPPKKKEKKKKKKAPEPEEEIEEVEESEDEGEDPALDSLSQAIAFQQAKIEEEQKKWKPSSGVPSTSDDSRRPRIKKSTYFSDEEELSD
UniProt Q5D1E8: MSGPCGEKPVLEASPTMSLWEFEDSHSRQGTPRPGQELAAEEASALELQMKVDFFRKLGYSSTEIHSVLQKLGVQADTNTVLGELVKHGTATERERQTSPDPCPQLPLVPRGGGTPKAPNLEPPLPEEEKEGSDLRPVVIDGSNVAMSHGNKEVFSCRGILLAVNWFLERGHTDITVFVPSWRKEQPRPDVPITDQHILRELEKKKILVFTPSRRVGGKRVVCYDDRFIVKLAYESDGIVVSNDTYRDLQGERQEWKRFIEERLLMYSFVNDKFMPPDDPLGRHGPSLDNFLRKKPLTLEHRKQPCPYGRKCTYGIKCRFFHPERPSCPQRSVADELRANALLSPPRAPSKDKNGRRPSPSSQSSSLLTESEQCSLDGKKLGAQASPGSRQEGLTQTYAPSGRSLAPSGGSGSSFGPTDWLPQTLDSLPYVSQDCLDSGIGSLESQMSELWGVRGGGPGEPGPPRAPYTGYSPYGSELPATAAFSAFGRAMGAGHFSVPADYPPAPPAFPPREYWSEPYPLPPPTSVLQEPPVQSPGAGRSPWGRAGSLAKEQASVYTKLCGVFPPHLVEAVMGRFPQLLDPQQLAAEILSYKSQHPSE
UniProt O75132: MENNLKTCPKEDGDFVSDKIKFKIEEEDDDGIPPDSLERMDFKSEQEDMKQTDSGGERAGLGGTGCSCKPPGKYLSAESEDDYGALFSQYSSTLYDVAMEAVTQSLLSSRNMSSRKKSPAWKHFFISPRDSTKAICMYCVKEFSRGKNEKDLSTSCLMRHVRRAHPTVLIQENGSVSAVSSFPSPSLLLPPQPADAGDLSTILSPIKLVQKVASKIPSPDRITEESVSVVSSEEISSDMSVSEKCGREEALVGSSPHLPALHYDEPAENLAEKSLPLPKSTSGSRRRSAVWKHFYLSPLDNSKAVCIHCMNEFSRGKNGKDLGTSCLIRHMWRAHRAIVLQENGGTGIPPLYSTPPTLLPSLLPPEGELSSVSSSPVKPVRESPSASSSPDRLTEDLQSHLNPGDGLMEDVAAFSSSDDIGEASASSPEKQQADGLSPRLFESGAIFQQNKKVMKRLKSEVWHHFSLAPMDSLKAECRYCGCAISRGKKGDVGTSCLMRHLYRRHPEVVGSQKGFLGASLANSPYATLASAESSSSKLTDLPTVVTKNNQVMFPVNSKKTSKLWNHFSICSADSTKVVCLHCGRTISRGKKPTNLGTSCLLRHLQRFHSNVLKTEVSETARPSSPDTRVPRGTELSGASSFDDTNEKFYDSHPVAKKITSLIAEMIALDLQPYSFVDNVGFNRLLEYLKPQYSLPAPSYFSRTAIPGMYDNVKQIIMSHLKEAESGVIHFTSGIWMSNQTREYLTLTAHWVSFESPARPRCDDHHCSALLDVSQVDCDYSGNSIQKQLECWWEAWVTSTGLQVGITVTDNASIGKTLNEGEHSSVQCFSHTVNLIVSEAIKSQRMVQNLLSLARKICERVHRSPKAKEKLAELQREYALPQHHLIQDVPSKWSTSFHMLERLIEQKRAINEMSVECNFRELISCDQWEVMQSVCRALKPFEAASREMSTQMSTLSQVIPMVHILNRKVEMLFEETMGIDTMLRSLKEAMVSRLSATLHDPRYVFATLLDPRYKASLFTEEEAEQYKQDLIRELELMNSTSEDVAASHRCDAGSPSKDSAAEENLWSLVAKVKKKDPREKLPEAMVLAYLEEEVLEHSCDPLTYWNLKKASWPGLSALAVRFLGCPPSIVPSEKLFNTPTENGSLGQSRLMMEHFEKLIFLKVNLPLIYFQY
UniProt Q9BWQ6: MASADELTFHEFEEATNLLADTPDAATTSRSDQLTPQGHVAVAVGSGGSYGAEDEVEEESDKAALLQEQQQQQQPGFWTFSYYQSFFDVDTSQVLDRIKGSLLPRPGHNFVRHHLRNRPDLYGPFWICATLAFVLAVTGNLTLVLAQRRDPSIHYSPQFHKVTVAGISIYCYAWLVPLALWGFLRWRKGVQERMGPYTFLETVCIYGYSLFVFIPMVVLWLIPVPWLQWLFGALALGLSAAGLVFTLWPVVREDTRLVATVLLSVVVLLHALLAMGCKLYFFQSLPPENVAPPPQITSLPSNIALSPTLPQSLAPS

Key:
Experiment in all cases: log2 fold change, soluble protein after heating vs DMSO (PISA); higher = thermal stabilisation; K562 lysate, 10 uM; active = over 0.2 and 3.5 SD of the protein, either way, in both replicates (recomputed)
[1] = compound: C/C(=N\NC(=O)C1=CC(=CC=C1)S(=O)(=O)N2CCOCC2)/C3=C(C=CC(=C3)Cl)O
Procedure, shortened: (§1)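 Log-two fold change in thermal stability relative to solvent controls is reported from duplicates. For each sample, crude K562 extract from dounce-homogenised pellets in PBS pH 7.4 with 1 mM MgCl2, at 1 mg/mL protein, was treated with 10 μM compound for 30 min. Aliquots heated for 3 min across 48°C-58°C were pooled, brought to 0.5% NP-40 at 4°C and cleared at 21,000xg for 90 min. The supernatant was quantified by TMTpro 16plex LC-MS/MS with channel sums equalised.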

[2] = compound: C1=CC2=C(C=CC(=C2)/C=C\3/C(=O)NC(=NCC4=CC=CS4)S3)N=C1
Procedure, shortened: as §1

[3] = compound: C1=CC2=NC=CN=C2C=C1/C=C/3\C(=O)NC(=O)S3
Procedure, shortened: as §1

[4] = compound: C1=CC=C(C=C1)C2=NC(=C(N2)C3=CC=NC=C3)C4=CC(=C(C=C4)Cl)O
Procedure, shortened: as §1

[5] = compound: C1=CC=C2C(=C1)C3=NNC4=CC=CC(=C43)C2=O
Procedure, shortened: as §1

[6] = compound: C1CCN(C1)C(=O)NC2=CC=CC(=C2)NC3=NC=C(C(=N3)NCCC4=CN=CN4)Br
Procedure, shortened: as §1

[7] = compound: C1CN(CCC1(CC2=CC=C(C=C2)Cl)N)C3=NC=NC4=C3C=CN4
Procedure, shortened: as §1

[8] = compound: C1COCCN1CCN2C3=CC=CC=C3N=C2NC(=O)C4=CC(=CC=C4)[N+](=O)[O-] [IRAK-1-4 Inhibitor I]
Procedure, shortened: as §1

[9] = compound: C#Cc1cccc(Nc2ncnc3cc(OCCOC)c(OCCOC)cc23)c1 [erlotinib]
Procedure, shortened: as §1

[10] = compound: C1=CC(=CC=C1C2=NC3=C(N2)C=C(C=C3)C(=O)N)OC4=CC=C(C=C4)Cl
Procedure, shortened: as §1

Measured: log2 fold change

ZFP36L2 (UniProt P47974)
inactive: [1] 0.01 | [2] -0.002 | [3] -0.213 | [4] -0.212 | [5] -0.017 | [6] -0.052 | [7] 0.014 | [8] -0.078

ZBTB39 (UniProt O15060)
inactive: [4] -0.086 | [8] -0.184

ZDHHC9 (UniProt Q9Y397)
inactive: [9] 0.009 | [10] -0.136 | [4] 0.121 | [8] -0.071

ZDHHC17 (UniProt Q8IUH5)
inactive: [1] 0.197 | [2] 0.011 | [4] -0.082 | [5] -0.247 | [6] -0.066 | [7] -0.027 | [8] 0.205

ZBED6 (UniProt P86452)
inactive: [9] -0.149 | [10] 0.05 | [4] -0.003 | [8] 0.069

ZBTB14 (UniProt O43829)
inactive: [9] -0.048 | [10] 0.051 | [3] 0.006 | [4] 0.016 | [8] 0.039

XRCC2 (UniProt O43543)
inactive: [3] -0.047

YTHDC1 (UniProt Q96MU7)
inactive: [1] 0.155 | [2] -0.239 | [3] -0.003 | [5] 0.039 | [6] -0.101 | [7] -0.086

ZFAND1 (UniProt Q8TCF1)
inactive: [3] 0.171 | [4] 0.066 | [6] 0.004 | [7] 0.079 | [8] -0.018

ZFYVE1 (UniProt Q9HBF4)
inactive: [9] -0.051 | [10] 0.014 | [3] -0.062 | [4] 0.081 | [8] -0.034

ZDHHC20 (UniProt Q5W0Z9)
inactive: [1] -0.031 | [2] -0.046 | [3] -0.092 | [5] 0.017 | [6] 0.032 | [7] 0.011

ZBTB34 (UniProt Q8NCN2)
inactive: [3] -0.214 | [4] -0.066 | [8] 0.069

ZDHHC2 (UniProt Q9UIJ5)
inactive: [9] -0.046 | [10] 0.004 | [4] -0.063 | [6] 0.392 | [7] 0.081 | [8] 0.042

ZFAND3 (UniProt Q9H8U3)
inactive: [1] -0.063 | [2] 0.025 | [3] -0.076 | [4] 0.004 | [5] 0.059 | [6] 0.043 | [7] 0.002 | [8] 0.013

ZFYVE21 isoform 2 (UniProt Q9BQ24)
inactive: [1] 0.218 | [2] -0.064 | [3] -0.021 | [4] 0.094 | [5] 0.084 | [6] 0.049 | [7] 0.074 | [8] 0.145

YY1AP1 isoform 9 (UniProt Q9H869)
inactive: [9] 0.126 | [10] -0.037 | [4] 0.171 | [6] -0.058 | [7] -0.02 | [8] 0

ZBTB37 (UniProt Q5TC79)
inactive: [4] -0.012 | [8] 0.028

Seven consecutive records from above, for reference:
ZFAND1 (UniProt Q8TCF1)
inactive: [3] 0.171 | [4] 0.066 | [6] 0.004 | [7] 0.079 | [8] -0.018

ZFYVE1 (UniProt Q9HBF4)
inactive: [9] -0.051 | [10] 0.014 | [3] -0.062 | [4] 0.081 | [8] -0.034

ZDHHC20 (UniProt Q5W0Z9)
inactive: [1] -0.031 | [2] -0.046 | [3] -0.092 | [5] 0.017 | [6] 0.032 | [7] 0.011

ZBTB34 (UniProt Q8NCN2)
inactive: [3] -0.214 | [4] -0.066 | [8] 0.069

ZDHHC2 (UniProt Q9UIJ5)
inactive: [9] -0.046 | [10] 0.004 | [4] -0.063 | [6] 0.392 | [7] 0.081 | [8] 0.042

ZFAND3 (UniProt Q9H8U3)
inactive: [1] -0.063 | [2] 0.025 | [3] -0.076 | [4] 0.004 | [5] 0.059 | [6] 0.043 | [7] 0.002 | [8] 0.013

ZFYVE21 isoform 2 (UniProt Q9BQ24)
inactive: [1] 0.218 | [2] -0.064 | [3] -0.021 | [4] 0.094 | [5] 0.084 | [6] 0.049 | [7] 0.074 | [8] 0.145

Next part.

ZCRB1 (UniProt Q8TBF4)
inactive: [9] -0.006 | [10] -0.02 | [4] -0.019 | [8] 0.032

ZC3H10 (UniProt Q96K80)
inactive: [3] 0.023

ZFYVE19 isoform 3 (UniProt Q96K21)
inactive: [3] 0.038

ZFP64 isoform 5 (UniProt Q9NTW7)
inactive: [3] -0.211 | [4] -0.004 | [6] -0.033 | [7] 0.011 | [8] -0.006

ZFP92 (UniProt A6NM28)
inactive: [1] 0.024 | [2] -0.142 | [5] -0.052 | [6] -0.023 | [7] 0.125

ZFX isoform 3 (UniProt P17010)
inactive: [4] -0.014 | [8] 0.043

ZC3H12A (UniProt Q5D1E8)
inactive: [9] -0.06 | [10] 0.025 | [4] 0.019 | [6] -0.022 | [7] 0.055 | [8] 0.112

ZBED4 (UniProt O75132)
inactive: [1] 0.188 | [2] -0.182 | [5] -0.005

ZC3H12C isoform 2 (UniProt Q9C0D7)
inactive: [9] 0.097 | [10] -0.038 | [3] 0.262 | [4] 0.235 | [8] -0.065

ZDHHC14 (UniProt Q8IZN3)
inactive: [1] -0.044 | [2] -0.028 | [4] -0.041 | [5] -0.036 | [6] 0.001 | [7] 0.007 | [8] 0.065

ZFAT (UniProt Q9P243)
inactive: [9] 0.077 | [10] 0.1 | [6] -0.216 | [7] -0.072

YIPF2 (UniProt Q9BWQ6)
inactive: [9] 0.121 | [10] 0.061 | [4] -0.043 | [8] 0.115

ZBTB48 (UniProt P10074)
inactive: [1] 0.065 | [2] 0.167 | [5] -0.083

ZFHX4 isoform 5 (UniProt Q86UP3)
inactive: [9] 0.016 | [10] 0.003 | [3] -0.056 | [4] -0.271 | [8] 0.237
